The values below come from article PMC10393192.

Protein sequences, listed by entry. Tags and fused reporters are not part of them.
UniProt P33323: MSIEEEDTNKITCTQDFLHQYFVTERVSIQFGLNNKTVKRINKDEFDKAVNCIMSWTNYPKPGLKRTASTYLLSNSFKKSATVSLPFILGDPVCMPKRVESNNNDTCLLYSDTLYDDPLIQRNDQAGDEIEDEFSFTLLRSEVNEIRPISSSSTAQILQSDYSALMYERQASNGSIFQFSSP

Where a chain is given by its changes, count along the chain named. Names may count otherwise. No constants are given. Whether binding was seen depends on the method and setting. Some results given as binding are weak or reduced against the parent protein; the word gives no strength. For some assays here: Sequences can lack the tags named with a protein.

The target in experiment [1] is T1, LexA DNA binding domain fused to Mei4 (S. cerevisiae) (UniProt P29467).
T1 sequence: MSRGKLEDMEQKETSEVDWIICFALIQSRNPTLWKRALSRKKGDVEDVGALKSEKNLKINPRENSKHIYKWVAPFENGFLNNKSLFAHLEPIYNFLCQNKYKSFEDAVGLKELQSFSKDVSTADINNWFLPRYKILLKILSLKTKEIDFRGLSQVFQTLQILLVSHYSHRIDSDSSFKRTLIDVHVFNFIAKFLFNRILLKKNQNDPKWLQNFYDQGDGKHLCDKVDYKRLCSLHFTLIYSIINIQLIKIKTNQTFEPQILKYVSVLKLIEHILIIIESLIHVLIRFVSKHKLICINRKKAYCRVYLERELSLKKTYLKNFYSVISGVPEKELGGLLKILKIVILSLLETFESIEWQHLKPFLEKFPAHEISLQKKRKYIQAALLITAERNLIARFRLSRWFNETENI
Kind of experiment: two-hybrid; Gal4AD-Rec114 with LexA fusions of the partners in diploid yeast; quantitative β-galactosidase assay with ONPG.

In experiment [2] the target is LexA–Rec104 (S. cerevisiae) (UniProt P33323). The experiment is described as above.
Experiment [3] has as its target T2, LexA–Rec102 (S. cerevisiae) (UniProt Q02721).
T2 sequence: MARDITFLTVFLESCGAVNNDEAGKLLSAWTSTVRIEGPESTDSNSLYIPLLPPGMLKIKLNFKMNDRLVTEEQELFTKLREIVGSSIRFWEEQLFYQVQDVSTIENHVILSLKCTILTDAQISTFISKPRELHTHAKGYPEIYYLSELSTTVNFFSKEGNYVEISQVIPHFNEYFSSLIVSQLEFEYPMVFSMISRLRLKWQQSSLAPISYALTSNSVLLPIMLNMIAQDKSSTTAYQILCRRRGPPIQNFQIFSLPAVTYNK
Described as above.

The target in experiment [4] is T3, Mei4N (residues 1–43 of Mei4) (S. cerevisiae) (UniProt P29467).
T3 sequence: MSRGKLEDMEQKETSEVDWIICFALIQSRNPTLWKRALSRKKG
Nature of the experiment: co-purification after coexpression (cobalt resin + SEC); coexpressed in E. coli BL21(DE3) from a pETDuet-based vector with a 6xHis-SUMO tag; cobalt resin in 500 mM NaCl, tag cleaved with Ulp1, Superdex 200 Increase in 25 mM HEPES-NaOH pH 7.4, 100 mM NaCl; fractions checked by SDS-PAGE.

In experiment [5] the target is Rec114C (residues 375–428 of yeast Rec114) (S. cerevisiae) (UniProt P32841). Nature of the experiment: NMR spectroscopy (HSQC, backbone assignment) of the complex; coexpressed and co-purified complex, uniformly 15N-13C labelled; 25 mM HEPES-NaOH pH 7.4, 100 mM NaCl, 0.5 mM EDTA, 1 mM TCEP, 0.05% NaN3, 25°C; both purified.
The target of experiment [6] is T4, Mei4N with a C-terminal ybbR tag (S. cerevisiae) (UniProt P29467).
T4 sequence: T3 sequence
The experiment is described as above.

In experiment [7] the target is T3, Mei4N (residues 1–43 of Mei4) (S. cerevisiae). The experiment is described as above.
Experiment [8] addresses T5, Mei4_(13–43) (S. cerevisiae) (UniProt P29467).
T5 sequence: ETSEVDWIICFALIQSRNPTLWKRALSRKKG
The description is as above.

Experiment [9] addresses T6, Mei4_(1–90) (S. cerevisiae) (UniProt P29467).
T6 sequence: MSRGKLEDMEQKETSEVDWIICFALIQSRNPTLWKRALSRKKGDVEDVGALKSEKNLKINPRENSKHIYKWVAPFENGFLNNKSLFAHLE
Kind of experiment: co-purification after coexpression (cobalt resin + SEC); coexpressed in E. coli BL21(DE3) from a pETDuet-based vector with a 6xHis-SUMO tag; cobalt resin in 500 mM NaCl, tag cleaved with Ulp1, Superdex 200 Increase in 25 mM HEPES-NaOH pH 7.4, 100 mM NaCl; fractions checked by SDS-PAGE.

In experiment [10] the target is T5, Mei4_(13–43) (S. cerevisiae). The experiment is described as above.
Experiment [11] shares this target. Nature of the experiment: NMR spectroscopy (HSQC, backbone assignment) of the complex; coexpressed and co-purified complex, 470 µM, uniformly 15N-13C labelled; 25 mM NaHPO4 pH 6.1, 100 mM NaCl, 0.5 mM EDTA, 1 mM TCEP, 0.05% NaN3, 5% D2O; both purified.
For experiment [12], the target named is T7, mMEI4N (mouse MEI4 residues 1–42) (mouse) (UniProt Q8BRM6).
T7 sequence: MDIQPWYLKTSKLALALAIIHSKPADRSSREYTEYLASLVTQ
Kind of experiment: co-purification after coexpression (cobalt resin + SEC); coexpressed in E. coli BL21(DE3) from a pETDuet-based vector with a 6xHis-SUMO tag; cobalt resin in 500 mM NaCl, tag cleaved with Ulp1, Superdex 200 Increase in 25 mM HEPES-NaOH pH 7.4, 100 mM NaCl; fractions checked by SDS-PAGE.

B1: Gal4-activating domain (AD) fused to Rec114 (protein, UniProt P32841 1-428)
chain: MYEYCSVVIKKYSKYTIPSFAPNGFQSMLEPPQIDKWQHLSANCTLQFRVLLMDSRQILINVVLNNSTLLENIRLPLGDNQDLIQFSCKSPIISCKYISEEFGPRMLRRFQMNLPNDVEFNRTVVSLKNLNFVLRTARTSIAQSTITSQVQGNNNGTKVCFTEGPKVSSYTNPNTQFQTQNMIMDFSQRYQEESERESNNRSNITLPHDSIQIAQQIWPNTDLNVVQSSQDLNTPMATQTVLGRPESLIVQPLEVSQSPPNTTNCLPNAENKKKKVDTTSDFTSRKEIALCKTGLLETIHIPKERESQMQSVTGLDATPTIIWSPGKDNTAKKNTSNKKNIDDKLTNPQKSGNTHTPDRNKEVLPNGTLNETRKEASPSEGLTIRVKNVNRNASRKISKRLIKEKLKDEEFMKWVNKVETVLNKMFEK
For B1, the binding entry in experiment [1], in experiment [2] and in experiment [3] was “binds” throughout.

B2: Rec114 N416A/E419A/N423A (Gal4AD fusion) (protein, UniProt P32841 1-428)
chain: B1 chain with N416A, E419A, N423A
Turning to B2, the binding result in [1] is reported as “binds”.

B3: Rec114 K405E (Gal4AD fusion) (protein, UniProt P32841 1-428)
chain: B1 chain with K405E
In the case of B3, the binding result in [1] is “binds”.

B4: Rec114 I402A (Gal4AD fusion) (protein, UniProt P32841 1-428)
chain: B1 chain with I402A
With B4, the binding entry in [1] is listed as “binds”.

B5: Rec114-4KR (Gal4AD fusion) (protein, UniProt P32841 1-428)
chain: B1 chain with R395A, K396A, K399A, R400A
With B5, the binding result in [2] and in experiment [3] was “binds” throughout.

B6: Rec114C (residues 375–428 of yeast Rec114) (domain or fragment, UniProt P32841 375-428)
chain: EASPSEGLTIRVKNVNRNASRKISKRLIKEKLKDEEFMKWVNKVETVLNKMFEK
With B6, the binding entry in [4], in [5], in experiment [6], in experiment [7] and in [8] was “binds” throughout.

B7: Rec114_(325–428) (domain or fragment, UniProt P32841 325-428)
chain: PGKDNTAKKNTSNKKNIDDKLTNPQKSGNTHTPDRNKEVLPNGTLNETRKEASPSEGLTIRVKNVNRNASRKISKRLIKEKLKDEEFMKWVNKVETVLNKMFEK
For the molecule B7, the binding entry in [9] was “binds”.

B8: Rec114_(388–428) (domain or fragment, UniProt P32841 388-428)
chain: NVNRNASRKISKRLIKEKLKDEEFMKWVNKVETVLNKMFEK
For the molecule B8, the binding entry in [4], in experiment [10], in experiment [7] and in experiment [11] was “binds” throughout.

B9: Rec114_(388–428) K399A/R400A (domain or fragment, UniProt P32841 388-428)
chain: B8 chain with K12A, R13A
Consider B9, for which the binding result in [4] is recorded as “binds”.

B10: Rec114_(388–428) R395A/K396A (domain or fragment, UniProt P32841 388-428)
chain: B8 chain with R8A, K9A
As for B10, the binding result in experiment [4] is “binds”.

B11: Rec114_(388–428) K403A/K407A (domain or fragment, UniProt P32841 388-428)
chain: B8 chain with K16A, K20A
Consider B11, for which, in [4], the binding result was “binds”.

B12: Rec114_(388–428) K417A/K424A (domain or fragment, UniProt P32841 388-428)
chain: B8 chain with K30A, K37A
Consider B12, for which the binding result in experiment [4] was “binds”.

B13: mREC114C (mouse REC114 residues 203–259) (domain or fragment, UniProt Q9CWH4 203-259)
chain: RAQSILAPEKLTLAYEGSSWGTEELGPFLRLCLMDQNFPAFVEEVEKELKKITGLRN
Regarding B13, the binding result in experiment [12] is reported as “binds”.
